This is one part of the list. The data scatter; read single values as rough.

By UniProt entry, the sequences of proteins in these tests, tags left out. Where a name states a change or a piece, a line headed by the entry shows the natural chain unless it says otherwise. Residues count along the entry.
UniProt P46736: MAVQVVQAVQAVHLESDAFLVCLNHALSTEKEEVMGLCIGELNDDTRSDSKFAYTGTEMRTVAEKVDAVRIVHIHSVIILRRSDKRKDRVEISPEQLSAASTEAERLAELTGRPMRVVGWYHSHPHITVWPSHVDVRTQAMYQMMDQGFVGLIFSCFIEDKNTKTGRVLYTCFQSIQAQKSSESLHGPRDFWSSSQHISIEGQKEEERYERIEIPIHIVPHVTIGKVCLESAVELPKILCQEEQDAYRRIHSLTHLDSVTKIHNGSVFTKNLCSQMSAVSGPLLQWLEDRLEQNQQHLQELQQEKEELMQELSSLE
UniProt Q8NFC6: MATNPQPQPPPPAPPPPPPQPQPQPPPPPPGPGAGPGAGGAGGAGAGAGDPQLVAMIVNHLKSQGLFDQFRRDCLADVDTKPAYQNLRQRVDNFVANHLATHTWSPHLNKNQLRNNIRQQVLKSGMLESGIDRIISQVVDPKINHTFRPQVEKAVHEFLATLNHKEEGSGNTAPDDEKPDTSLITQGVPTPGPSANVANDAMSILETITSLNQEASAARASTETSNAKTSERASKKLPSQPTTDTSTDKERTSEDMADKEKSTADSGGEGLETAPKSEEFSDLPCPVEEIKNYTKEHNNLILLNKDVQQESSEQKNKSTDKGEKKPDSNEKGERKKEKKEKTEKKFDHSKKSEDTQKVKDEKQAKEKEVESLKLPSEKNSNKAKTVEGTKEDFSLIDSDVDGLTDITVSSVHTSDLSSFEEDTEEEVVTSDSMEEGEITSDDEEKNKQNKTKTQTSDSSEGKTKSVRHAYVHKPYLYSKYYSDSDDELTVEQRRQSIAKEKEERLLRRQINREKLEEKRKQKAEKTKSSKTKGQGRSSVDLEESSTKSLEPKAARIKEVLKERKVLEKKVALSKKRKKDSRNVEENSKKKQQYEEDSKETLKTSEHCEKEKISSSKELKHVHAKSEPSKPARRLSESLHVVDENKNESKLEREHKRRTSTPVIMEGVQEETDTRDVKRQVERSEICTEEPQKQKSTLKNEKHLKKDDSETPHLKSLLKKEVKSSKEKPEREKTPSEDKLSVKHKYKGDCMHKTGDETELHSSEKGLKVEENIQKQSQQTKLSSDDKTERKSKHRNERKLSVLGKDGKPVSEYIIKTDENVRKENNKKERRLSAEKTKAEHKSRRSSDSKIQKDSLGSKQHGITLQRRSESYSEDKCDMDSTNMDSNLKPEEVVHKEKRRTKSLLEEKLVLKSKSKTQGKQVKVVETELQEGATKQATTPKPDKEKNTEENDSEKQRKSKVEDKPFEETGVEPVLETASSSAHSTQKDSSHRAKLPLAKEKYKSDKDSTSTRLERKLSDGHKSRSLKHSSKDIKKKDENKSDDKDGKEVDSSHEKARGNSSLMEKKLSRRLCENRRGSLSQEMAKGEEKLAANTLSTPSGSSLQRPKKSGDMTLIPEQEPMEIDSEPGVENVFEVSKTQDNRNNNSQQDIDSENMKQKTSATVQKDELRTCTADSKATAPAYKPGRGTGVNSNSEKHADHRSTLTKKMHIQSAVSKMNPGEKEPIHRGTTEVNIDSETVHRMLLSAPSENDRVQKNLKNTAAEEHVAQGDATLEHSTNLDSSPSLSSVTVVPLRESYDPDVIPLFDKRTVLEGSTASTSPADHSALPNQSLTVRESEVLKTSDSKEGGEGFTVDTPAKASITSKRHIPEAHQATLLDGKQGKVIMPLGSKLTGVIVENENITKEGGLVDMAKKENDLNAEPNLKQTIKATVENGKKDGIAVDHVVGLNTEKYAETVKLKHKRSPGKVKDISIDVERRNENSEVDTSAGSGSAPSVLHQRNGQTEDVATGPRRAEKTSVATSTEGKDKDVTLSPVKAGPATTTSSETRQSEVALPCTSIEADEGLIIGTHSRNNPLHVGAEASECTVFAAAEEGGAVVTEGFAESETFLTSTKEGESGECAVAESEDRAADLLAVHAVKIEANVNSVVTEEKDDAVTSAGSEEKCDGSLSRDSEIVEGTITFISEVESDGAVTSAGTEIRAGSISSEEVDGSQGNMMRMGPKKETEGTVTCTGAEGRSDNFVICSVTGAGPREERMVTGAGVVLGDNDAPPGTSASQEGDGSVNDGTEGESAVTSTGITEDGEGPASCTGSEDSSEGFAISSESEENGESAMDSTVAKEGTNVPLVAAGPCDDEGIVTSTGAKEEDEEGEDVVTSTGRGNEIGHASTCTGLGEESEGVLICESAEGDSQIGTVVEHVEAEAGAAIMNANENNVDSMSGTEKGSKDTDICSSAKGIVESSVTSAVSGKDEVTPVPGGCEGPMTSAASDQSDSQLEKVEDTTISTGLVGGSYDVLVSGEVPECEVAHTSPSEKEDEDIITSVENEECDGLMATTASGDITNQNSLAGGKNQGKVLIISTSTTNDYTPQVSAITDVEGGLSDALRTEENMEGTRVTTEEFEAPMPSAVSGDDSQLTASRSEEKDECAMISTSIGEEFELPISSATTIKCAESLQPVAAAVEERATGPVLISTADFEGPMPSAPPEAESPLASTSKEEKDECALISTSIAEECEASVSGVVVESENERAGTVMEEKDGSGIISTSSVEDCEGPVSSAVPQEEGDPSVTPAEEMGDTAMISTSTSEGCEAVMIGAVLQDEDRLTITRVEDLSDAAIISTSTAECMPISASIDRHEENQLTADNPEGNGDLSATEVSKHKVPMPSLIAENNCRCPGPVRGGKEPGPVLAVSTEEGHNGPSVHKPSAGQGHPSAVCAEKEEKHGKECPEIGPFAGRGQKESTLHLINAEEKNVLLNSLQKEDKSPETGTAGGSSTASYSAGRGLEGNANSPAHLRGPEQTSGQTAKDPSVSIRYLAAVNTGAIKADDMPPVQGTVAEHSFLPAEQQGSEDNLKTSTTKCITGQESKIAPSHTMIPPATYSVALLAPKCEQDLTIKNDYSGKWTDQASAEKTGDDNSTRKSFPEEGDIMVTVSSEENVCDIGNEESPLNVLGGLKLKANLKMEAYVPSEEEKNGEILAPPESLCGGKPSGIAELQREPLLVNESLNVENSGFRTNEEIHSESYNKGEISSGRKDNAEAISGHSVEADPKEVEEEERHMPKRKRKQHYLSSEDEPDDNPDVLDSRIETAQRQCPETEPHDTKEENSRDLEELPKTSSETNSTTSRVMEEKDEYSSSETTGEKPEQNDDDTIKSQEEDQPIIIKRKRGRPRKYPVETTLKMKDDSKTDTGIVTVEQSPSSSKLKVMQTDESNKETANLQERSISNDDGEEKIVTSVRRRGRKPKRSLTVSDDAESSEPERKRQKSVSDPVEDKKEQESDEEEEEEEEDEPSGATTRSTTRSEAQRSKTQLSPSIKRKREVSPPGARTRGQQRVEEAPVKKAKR
UniProt Q96RR4: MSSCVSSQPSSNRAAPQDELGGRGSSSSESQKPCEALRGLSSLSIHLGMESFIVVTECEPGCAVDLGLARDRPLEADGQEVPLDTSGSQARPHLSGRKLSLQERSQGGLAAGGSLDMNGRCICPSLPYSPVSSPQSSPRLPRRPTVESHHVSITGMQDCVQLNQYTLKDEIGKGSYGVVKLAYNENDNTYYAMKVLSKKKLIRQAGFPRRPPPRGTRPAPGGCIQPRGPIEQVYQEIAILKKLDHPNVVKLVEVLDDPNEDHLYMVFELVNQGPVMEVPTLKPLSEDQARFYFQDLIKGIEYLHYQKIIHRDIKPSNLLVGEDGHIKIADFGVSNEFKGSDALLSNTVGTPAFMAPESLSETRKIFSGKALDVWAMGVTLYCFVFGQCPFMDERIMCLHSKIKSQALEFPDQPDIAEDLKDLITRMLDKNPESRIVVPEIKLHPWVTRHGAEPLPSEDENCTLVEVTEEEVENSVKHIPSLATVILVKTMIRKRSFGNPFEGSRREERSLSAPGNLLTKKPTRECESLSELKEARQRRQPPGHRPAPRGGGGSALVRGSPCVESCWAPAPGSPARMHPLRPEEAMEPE
UniProt Q5PSV4: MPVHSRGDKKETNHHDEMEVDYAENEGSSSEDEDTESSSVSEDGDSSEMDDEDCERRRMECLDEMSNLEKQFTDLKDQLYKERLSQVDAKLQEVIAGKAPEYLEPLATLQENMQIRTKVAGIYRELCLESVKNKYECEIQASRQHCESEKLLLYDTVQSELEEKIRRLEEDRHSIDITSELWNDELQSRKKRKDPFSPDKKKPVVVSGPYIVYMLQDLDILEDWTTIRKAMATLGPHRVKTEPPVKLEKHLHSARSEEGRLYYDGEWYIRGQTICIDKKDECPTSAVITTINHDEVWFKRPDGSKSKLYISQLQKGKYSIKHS
UniProt Q9Y3E2: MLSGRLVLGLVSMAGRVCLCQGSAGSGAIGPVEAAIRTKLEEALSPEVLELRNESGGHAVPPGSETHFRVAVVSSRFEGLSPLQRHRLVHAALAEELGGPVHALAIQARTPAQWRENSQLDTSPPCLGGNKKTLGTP
UniProt P78410: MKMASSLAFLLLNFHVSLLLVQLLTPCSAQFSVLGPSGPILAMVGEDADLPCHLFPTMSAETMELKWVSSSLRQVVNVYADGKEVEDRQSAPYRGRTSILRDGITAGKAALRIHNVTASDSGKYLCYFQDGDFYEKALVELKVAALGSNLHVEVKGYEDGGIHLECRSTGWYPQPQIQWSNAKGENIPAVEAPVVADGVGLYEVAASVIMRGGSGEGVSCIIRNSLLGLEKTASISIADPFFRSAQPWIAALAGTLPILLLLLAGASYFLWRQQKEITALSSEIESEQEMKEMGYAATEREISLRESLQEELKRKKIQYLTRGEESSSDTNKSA
UniProt O75155, 112-132: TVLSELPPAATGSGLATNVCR
UniProt Q96GS4: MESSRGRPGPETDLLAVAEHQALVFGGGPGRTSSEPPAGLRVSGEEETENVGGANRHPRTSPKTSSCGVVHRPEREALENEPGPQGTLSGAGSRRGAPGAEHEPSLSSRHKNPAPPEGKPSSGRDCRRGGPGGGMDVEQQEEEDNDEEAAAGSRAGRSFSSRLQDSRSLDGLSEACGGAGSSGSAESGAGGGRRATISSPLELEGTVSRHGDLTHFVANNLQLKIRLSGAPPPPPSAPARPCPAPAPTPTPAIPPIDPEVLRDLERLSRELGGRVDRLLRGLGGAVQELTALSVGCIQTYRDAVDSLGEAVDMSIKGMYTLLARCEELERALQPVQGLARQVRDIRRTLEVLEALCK
UniProt Q9HA77: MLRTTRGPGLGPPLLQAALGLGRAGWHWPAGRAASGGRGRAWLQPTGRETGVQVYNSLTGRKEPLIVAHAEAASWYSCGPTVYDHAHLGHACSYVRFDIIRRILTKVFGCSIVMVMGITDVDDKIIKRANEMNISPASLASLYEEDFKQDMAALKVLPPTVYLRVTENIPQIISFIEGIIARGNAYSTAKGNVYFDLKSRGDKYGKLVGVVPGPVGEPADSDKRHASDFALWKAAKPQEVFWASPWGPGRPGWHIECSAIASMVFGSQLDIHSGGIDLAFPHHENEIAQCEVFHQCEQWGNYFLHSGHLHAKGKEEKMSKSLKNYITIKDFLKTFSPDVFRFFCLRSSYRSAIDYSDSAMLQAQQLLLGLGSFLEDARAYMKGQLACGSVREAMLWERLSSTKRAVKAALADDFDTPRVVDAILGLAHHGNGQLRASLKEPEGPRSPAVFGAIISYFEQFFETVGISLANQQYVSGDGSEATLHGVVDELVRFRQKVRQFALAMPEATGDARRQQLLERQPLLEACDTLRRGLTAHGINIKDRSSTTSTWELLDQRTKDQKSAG
UniProt Q13557: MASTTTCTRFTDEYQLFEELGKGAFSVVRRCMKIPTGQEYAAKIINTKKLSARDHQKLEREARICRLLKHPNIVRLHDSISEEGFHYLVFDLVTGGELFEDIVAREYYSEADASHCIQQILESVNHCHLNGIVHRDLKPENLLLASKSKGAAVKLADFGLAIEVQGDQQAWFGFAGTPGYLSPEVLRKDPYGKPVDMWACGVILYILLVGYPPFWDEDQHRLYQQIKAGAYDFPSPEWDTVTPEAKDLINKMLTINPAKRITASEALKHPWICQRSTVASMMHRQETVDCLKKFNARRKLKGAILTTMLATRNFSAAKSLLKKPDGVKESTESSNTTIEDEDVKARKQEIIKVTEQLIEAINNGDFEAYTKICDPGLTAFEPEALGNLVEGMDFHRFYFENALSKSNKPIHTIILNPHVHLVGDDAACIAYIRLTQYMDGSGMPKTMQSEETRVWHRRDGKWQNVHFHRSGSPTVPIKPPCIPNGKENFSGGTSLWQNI
UniProt P17655, 391-414: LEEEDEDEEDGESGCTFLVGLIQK
UniProt P16152: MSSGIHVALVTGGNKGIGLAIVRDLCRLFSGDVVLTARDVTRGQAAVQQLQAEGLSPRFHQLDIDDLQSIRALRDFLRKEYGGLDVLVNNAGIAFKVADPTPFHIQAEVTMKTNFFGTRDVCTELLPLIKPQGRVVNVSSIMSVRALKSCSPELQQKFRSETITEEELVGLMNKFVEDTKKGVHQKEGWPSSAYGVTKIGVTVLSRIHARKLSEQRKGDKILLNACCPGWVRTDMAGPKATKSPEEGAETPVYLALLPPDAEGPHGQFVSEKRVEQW
UniProt Q9H7E9, 2-24: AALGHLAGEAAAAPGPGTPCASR

Results on 29 targets are retold here after the supplement of paper PMC11732987, “Enantioselective OTUD7B fragment discovery through chemoproteomics screening and high-throughput optimisation” (Communications Chemistry, 2025).

Compound in one assay: ClCC(=O)N[C@@H]1CCCc2ccccc12
Briefly: log2 mean competition ratio of IA-DTB cysteine labelling (DMSO/compound) (log2 ratio); higher = stronger cysteine engagement by compound. The note with it: 50 µM; treatment time: 4 h; cell line lysate: HEK293T. Here is the method: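 IA-DTB competitive cysteine chemoproteomics in HEK293T RIPA lysate. Lysates were treated with compound 29 or 30 at 50 or 200 µM for 4 h, then IA-DTB (500 µM, 1 h), trypsin-digested, NeutrAvidin-enriched and analysed by diaPASEF. Competition ratio = intensity DMSO / intensity compound (n=4 treated, n=64 DMSO); binding: mean log2 CR ≥ 1 and p ≤ 0.05 plus QC filters. Target is the cysteine site.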
On to BRCC3 C240 (UniProt P46736), for which the “log2 mean competition ratio” value was determined as 0.014.
As for BOD1L1 C1742 (UniProt Q8NFC6), the “log2 mean competition ratio” value is -0.348.
Turning to CAMKV C36, the “log2 mean competition ratio” value is -0.264.
Take C2orf72 C244: the “log2 mean competition ratio” value is -0.0885.
Consider CAMKK2 C4 (UniProt Q96RR4), for which the “log2 mean competition ratio” value was -0.115.
The same measure, in the same setting: to BRMS1L C275 (UniProt Q5PSV4) belongs 0.2; to BOLA1 C126 (UniProt Q9Y3E2), 0.158.
Take BTN3A2 C220 (UniProt P78410): the “log2 mean competition ratio” value was -0.0397.

The assay is the same for the next values; noted with them: 200 µM; treatment time: 4 h; cell line lysate: HEK293T.
Regarding BOD1L1 C1618 (UniProt Q8NFC6), the “log2 mean competition ratio” value is -0.0412.
As for C19orf54 C186 (UniProt Q5BKX5), the “log2 mean competition ratio” value was 0.0689.
Take CAND1 C571: the “log2 mean competition ratio” value is -0.0957.
For BOD1L1 C285 (UniProt Q8NFC6), the “log2 mean competition ratio” value was -0.548.
As to C6orf89 C28 (UniProt Q6UWU4), the “log2 mean competition ratio” value was 0.156.
The same measure, in the same setting: to CAPN5 C495 belongs -0.0923; to CARMIL2 C1339 (UniProt Q6F5E8), -0.133.
With CAMSAP2 C1032 (UniProt Q08AD1), the “log2 mean competition ratio” value was -0.0923.
On to BPTF C20, for which the “log2 mean competition ratio” value is 0.0487.
For the target CAND2 C131 (UniProt O75155), the “log2 mean competition ratio” value was determined as 0.0288.
For BPTF C1156, the “log2 mean competition ratio” value is 0.173.
In the case of BORCS6 C67 (UniProt Q96GS4), the “log2 mean competition ratio” value is -0.14.
Still for that read-out and setting: as for C8orf76 C248 (UniProt Q96K31), the figure is -0.176; as for CARS2 C526 (UniProt Q9HA77), 0.299.
For CAMK2D C481 (UniProt Q13557), the “log2 mean competition ratio” value was -0.456.
For the target C1orf174 C42 (UniProt Q8IYL3), the “log2 mean competition ratio” value was -0.361.
For CAPN2 C405 (UniProt P17655), the “log2 mean competition ratio” value turned out to be 0.157.
Take CBR1 C122 (UniProt P16152): the “log2 mean competition ratio” value came out at 0.0754.
Regarding CA8 C200 (UniProt P35219), the “log2 mean competition ratio” value was determined as 0.0103.
With C8orf33 C21 (UniProt Q9H7E9), the “log2 mean competition ratio” value is -0.108.
For CAPN2 C341 (UniProt P17655), the “log2 mean competition ratio” value is -0.208.
